From PubChem BioAssay record AID1159506 (NCATS, 2015).

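Luminescence from an EWS-FLI1 target-promoter (NR0B1) reporter, set against a CMV-promoter reporter, two days after silencing single genes in TC32 Ewing sarcoma cells.
Each siRNA was applied at 20 nM.
A z-score of the log NR0B1-over-CMV signal, less the median of siRNAs with the same seed; more negative means a stronger specific loss of the NR0B1 reporter.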

This is part of the screen; most of the strongest results are not listed here.
Sequences are the guide (antisense) strand, without overhang.

| # | siRNA | target gene | seed-corrected z-score |
|---|---|---|---|
| 1 | `UCUUUGCACAGGUCUAGCU` | IRX5 | -1.515 |
| 2 | `UCAUCCACCAGGCUUGGUG` | HTRA3 | -0.6235 |
| 3 | `UAUUAGAUCAGAAAUAUUC` | STXBP5-AS1 | 0.2927 |
| 4 | `AUGACUGUCAUUAAACCUG` | GTF2IP20 | 0.2753 |
| 5 | `AUGUCAAUAACCACCGCGC` | ACTL9 | -1.373 |
| 6 | `UGAUCUAUAAUGAAAGGCC` | ZNF624 | 0.08018 |
| 7 | `AAGGUUAACAUGAGUCUCG` | FBXL21 | 0.1837 |
| 8 | `UCCAUCAACAUUAAGCCGG` | PIP4K2A | -0.0141 |
| 9 | `UCAGUUUUAGAGAUGAAAG` | LHX3 | 0.7706 |
| 10 | `UGCAUUCUUACGGUAGGCC` | PHKA2 | 0.5512 |
| 11 | `UAGGUAAGGAUAAAUAUCG` | SLC9A2 | 0.00853 |
| 12 | `UCCUUUAGCGGUCAUUGCC` | COX6B1 | -0.382 |
| 13 | `AUUGAUAAAUUUCCGGUCC` | RIC8B | 0.6219 |
| 14 | `UCACUUGUAUCAACUCAGG` | SLC1A5 | -0.0687 |
| 15 | `UUCUGAAUACAAUGCAUUG` | PRKY | -0.4874 |
| 16 | `UUUGCGGAAGGCACAGUCC` | LOC441239 | 0.2511 |
| 17 | `AACAGGACCACGACGAUGA` | FNDC5 | -1.572 |
| 18 | `AAGUCUAAGAUGGACACGC` | ZNF616 | -0.05685 |
| 19 | `UCAGAGAUAGUGGUGACUG` | LRRC4 | -0.2507 |
| 20 | `ACAGUGAUAGGUGACAUAC` | SLC25A38 | 0.9218 |
| 21 | `UAUUAAGAAGAAUUCGUGG` | C6orf58 | -0.5816 |
| 22 | `UUAGAUUUCUUUCUGAUCA` | LINC00284 | -0.03619 |
| 23 | `UUGAGUACCAUGGGCAGCC` | SPPL2C | 1.311 |
| 24 | `AUAAGAGGAGGAUUUUCGG` | LOC729879 | -0.1473 |
| 25 | `UCAUUGCUGAUCAUACUUG` | ENG | -0.3495 |
| 26 | `UUAUGUACAAGGAAGAGUG` | ZNF37A | -1.282 |
| 27 | `UGUGCAAGUUAUUCGGACG` | NRN1L | -0.3887 |
| 28 | `AACUGUGGAAUCGUCAUUU` | COMMD6 | 0.525 |
| 29 | `UACAUUGAGCAGGUCGUCC` | TRIM29 | -0.134 |
| 30 | `UCCAAAUUUACUGUCACCU` | TMEM143 | 0.5712 |
| 31 | `AGAAUCACAAUCUUCCUGC` | SEC14L4 | 0.7346 |
| 32 | `AUUCGAACAAGCUUUACAC` | CTNNA1 | -0.1288 |
| 33 | `AAAUGGACUGCGGAGUAGC` | CCDC149 | 0.2522 |
| 34 | `UCCUUUUCCCUGCUGACCC` | CD300C | -0.7968 |
| 35 | `AAAGUAAGAAUUUGGACUU` | RPS27L | 0.244 |
| 36 | `UUCCAGCACACUUAAGAGG` | MS4A4A | 0.4022 |
| 37 | `UCGUAUGACAUCAAAAUUC` | DTNB | 0.5758 |
| 38 | `UCACGUACAUCUCUGAGUC` | BLNK | -0.7365 |
| 39 | `UAUAAUCCUAGUACCACUU` | LSM8 | -0.4001 |
| 40 | `AAGUCUACAAGGGAGAGGU` | OR5B21 | -0.7429 |
| 41 | `UAAAGAUCCAGCAUUCGGU` | ABAT | -0.901 |
| 42 | `UAAUCCACCUCAUUCACGC` | ETNK2 | 0.4563 |
| 43 | `UAGCAAGUUGUGAAUAUAC` | NSRP1 | -0.06754 |
| 44 | `UUUCAAUUGCUGCACUUUC` | AARD | 0.304 |
| 45 | `UGACGUAAGGGCCUUAUCC` | CUL2 | -0.1026 |
| 46 | `UUUCUUAGUCGACAAGUGG` | FAM92A1 | -0.1645 |
| 47 | `UUUGGUCUGAGAACUGUUG` | ZMYM3 | -0.9886 |
| 48 | `UGCUUGACUACUUUCAGUC` | SP100 | -0.09331 |
| 49 | `AAUGACCAAAGCACAGAUG` | DAND5 | 1.306 |
| 50 | `UGUUCUGUUAGUAAGAUAC` | LACRT | 0.8103 |
| 51 | `UCUCUAAAGUCUAUUGUCC` | NCALD | 0.6051 |
| 52 | `AGUUUCACAACAUCCAUGG` | CSF3R | -0.251 |
| 53 | `UUGGUCGCAAUAAAAGCCC` | NCOA3 | -0.2373 |
| 54 | `UAGCUGCCGAUGUAGAAGG` | COPE | -0.2895 |
| 55 | `UUCUUAACCAUGGGCGAUG` | CXCL2 | 0.8069 |
| 56 | `UCCACUGUAAUUAAGAAUG` | TXNDC9 | 0.03048 |

Once more, the final 3:

siRNA	target gene	seed-corrected z-score
UAGCUGCCGAUGUAGAAGG	COPE	-0.2895
UUCUUAACCAUGGGCGAUG	CXCL2	0.8069
UCCACUGUAAUUAAGAAUG	TXNDC9	0.03048